Laboratory results as given in US9050341B2, “Methods of treating drug resistant and other tumors by administering 6,7-dialkoxy quinazoline derivatives” (NATCO PHARMA LIMITED, priority 2009, dated 2015).
Like-named read-outs stand apart in the source and are kept apart here. For at least one compound, name, drawing or mass did not settle the structure.

What was measured:
[1] = test system: pancreatic cancer cells MIA PaCa-2; assay: Pancreatic cancer xenograft in nude mice; type: in vivo, Athymic nude mice; settings: for tumor regression compared with Erlotinib and Gemcitabine: 20 mg/kg oral vs Erlotinib 50 mg/kg oral, Gemcitabine 120 mg/kg i.p.; for tumor regression: subcutaneous MIA PaCa-2 tumors, nude mice, 20 mg/kg oral, 20 mg/kg
panel of 80 kinases = assay: KinomeScan kinase profiling, summary over the panel; type: binding
FLT3 (ITD) = assay: KinomeScan kinase profiling; type: binding
H1975 cells = assay: Erlotinib/Gefitinib resistant NSCLC xenograft in nude mice; type: in vivo, Athymic nude mice
[2] = test system: BT474/HTB20 human breast cancer cell line; assay: HER-2 positive breast cancer xenograft in SCID mice; type: in vivo; settings: for tumor regression compared with Lapatinib: Lapatinib 30 and 100 mg/kg oral twice a day
[3] = listed as compound of formula (IA)

Structure (SMILES): C#Cc1cccc(Nc2ncnc3cc(OC)c(OCCCN4CCOCC4)cc23)c1 [NRC-2694, N-(3-ethylnylphenyl)-7-methoxy-6-[3-(4-morpholinyl)propoxy]-4-quinazolinamine]
- tumor regression compared with Erlotinib and Gemcitabine ([1]; MIA PaCa-2, nude mice, listed as compound IA): superior to that caused by Erlotinib and Gemcitabine individually as well as in combination
- tumor regression compared with Erlotinib and Gemcitabine ([1]; MIA PaCa-2, nude mice, listed as compound of formula (IA)): superior to that caused by the existing drugs erlotinib and gemcitabine
- effect of addition of Gemcitabine on tumor regression ([1]; MIA PaCa-2, nude mice, 20 + 120 mg/kg, oral + ip): greater than additive effect
- tumor regression [1]: did cause the regression of pre-established subcutaneous pancreatic tumors
- tumor regression [1, 3]: caused regression of subcutaneous pancreatic tumors
- activity against kinases of the panel (panel of 80 kinases; kinases listed): found to possess activity various kinases
- number of kinases significantly inhibited (panel of 80 kinases; of 80 kinases evaluated in vitro): 15
- % Ctrl @ 10000 nM (FLT3 (ITD)): 0.1 % Ctrl
- tumor remission after withdrawing the study treatment (H1975 cells): Tumor remission was continued
- tumor volume, dose dependence (H1975 cells; 10, 20, 40 mg/kg oral): dose dependent decrease in the tumor volume
- anticancer activity compared to Erlotinib or control (H1975 cells; 10, 20, 40 mg/kg oral, Erlotinib 100 mg/kg oral): significant anticancer activity
- tumor remission after withdrawing the study treatment (H1975 cells; [3]): Tumor regression was observed after withdrawal of treatment
- anti tumor activity ([2]; 10, 20 and 40 mg/kg oral once a day): dose dependent increase in anti tumor activity
- tumor regression compared with Lapatinib [2]: superior to that of Lapatinib treated animals
- tumor regression compared with Lapatinib [2, 3]: superior to that of Lapatinib
